The source of these data is PubChem BioAssay AID256 (DTP/NCI, 2004).

The experiment concerns CD2F1 mice, L1210 leukemia ip, survival T/C. The experiment in a line: NCI In Vivo Anticancer Drug Screen. Data for tumor model L1210 Leukemia (intraperitoneal) in CD2F1 (CDF1) mice. The note with it: higher T/C = longer survival. In a few lines: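 Mice carrying a transplanted tumor received test compound or vehicle alone. The value is the measurement in the treated group divided by that in the vehicle-treated control group.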

[1] abbreviates: T/C endpoint: mean survival time, dose: 200.0 mg/kg/injection, schedule: Q01DX009 (ip), vehicle: citric acid.
Where [2] appears, read: T/C endpoint: mean survival time, dose: 200.0 mg/kg/injection, schedule: Q04DX003 (ip), vehicle: saline with Tween-80.
Setting [3] is: T/C endpoint: mean survival time, dose: 200.0 mg/kg/injection, schedule: Q01DX009 (ip), vehicle: saline with Tween-80.
Where [4] appears, read: T/C endpoint: mean survival time, dose: 400.0 mg/kg/injection, schedule: Q01DX009 (ip), vehicle: saline with Tween-80.
[5] abbreviates: T/C endpoint: mean survival time, dose: 400.0 mg/kg/injection, schedule: Q04DX002 (ip), vehicle: saline with Tween-80.

The list shows only some results of the screen, not a fair sample: it gathers tests that were run many times, whatever their T/C, doses with no T/C, and many T/C values between a quarter and a half above the control. Further doses and runs are listed elsewhere. T/C: endpoint of the treated group in % of that of the vehicle group. Some entries give survivors of the animals treated and no T/C: the source holds a T/C of zero for them, seemingly a mark for toxic or unscored doses. Some doses without a T/C left all or most animals alive at the check, yet need not have been tolerated: survival well below the control is almost never listed, so the zero probably covers shortened survival too. Survivors were counted at the toxicity check, usually on the fifth day, unless a day is given; later deaths do not show. Schedules are NCI's codes, read here as Q, the interval in days (D) or hours (H), X, the number of doses. Some entries were tested several times; their values stand side by side, smallest first. Signs of the kind (2×) say how often a value occurs here. Where survival is the endpoint, the PubChem record calls one and a half times the control and up active, and a quarter to a half above the control has no call in these data; cut-offs in other NCI protocols can differ. Some T/C values carry the count of animals alive at the toxicity check (mostly the fifth day); without a count, all were alive then.

With `CN(N=O)C(=O)N[C@@H](C=O)[C@@H](O)[C@H](O)[C@H](O)CO`, the T/C runs as follows: (T/C endpoint: mean survival time, dose: 12.5 mg/kg/injection, schedule: Q01DX009 (ip), vehicle: citric acid, evaluated on day 30) 96, 107, 110 % of control (2×); (T/C endpoint: mean survival time, dose: 12.5 mg/kg/injection, schedule: Q01DX009 (ip), vehicle: citric acid, evaluated on day 50) 96 % of control; (T/C endpoint: mean survival time, dose: 12.5 mg/kg/injection, schedule: Q01DX009 (ip), vehicle: other, evaluated on day 30) 97, 104 (2×), 105 % of control; (T/C endpoint: mean survival time, dose: 12.5 mg/kg/injection, schedule: Q01DX009 (ip), vehicle: other, evaluated on day 37) 103 % of control; (T/C endpoint: mean survival time, dose: 12.5 mg/kg/injection, schedule: Q01DX009 (ip), vehicle: other, evaluated on day 45) 103 % of control; (T/C endpoint: mean survival time, dose: 25.0 mg/kg/injection, schedule: Q01DX009 (ip), vehicle: citric acid, evaluated on day 30) 107, 109, 113, 129 % of control. The T/C by setting is: (T/C endpoint: mean survival time, dose: 25.0 mg/kg/injection, schedule: Q01DX009 (ip), vehicle: citric acid, evaluated on day 50) 110 % of control; (T/C endpoint: mean survival time, dose: 25.0 mg/kg/injection, schedule: Q01DX009 (ip), vehicle: other, evaluated on day 30) 113, 113 [5 of 6 alive], 114, 117 % of control; (T/C endpoint: mean survival time, dose: 25.0 mg/kg/injection, schedule: Q01DX009 (ip), vehicle: other, evaluated on day 37) 122 % of control; (T/C endpoint: mean survival time, dose: 25.0 mg/kg/injection, schedule: Q01DX009 (ip), vehicle: other, evaluated on day 45) 105 % of control; (T/C endpoint: mean survival time, dose: 25.0 mg/kg/injection, schedule: Q01DX009 (ip), vehicle: saline) 125 % of control; (T/C endpoint: mean survival time, dose: 50.0 mg/kg/injection, schedule: Q01DX009 (ip), vehicle: citric acid, evaluated on day 30) 123, 127, 131, 138 % of control. Further, the T/C was 138 % of control (T/C endpoint: mean survival time, dose: 50.0 mg/kg/injection, schedule: Q01DX009 (ip), vehicle: citric acid, evaluated on day 50); 117, 124, 127, 134 % of control (T/C endpoint: mean survival time, dose: 50.0 mg/kg/injection, schedule: Q01DX009 (ip), vehicle: other, evaluated on day 30); 129 % of control (T/C endpoint: mean survival time, dose: 50.0 mg/kg/injection, schedule: Q01DX009 (ip), vehicle: other, evaluated on day 37); 95 % of control (T/C endpoint: mean survival time, dose: 50.0 mg/kg/injection, schedule: Q01DX009 (ip), vehicle: other, evaluated on day 45); 127 % of control (T/C endpoint: mean survival time, dose: 50.0 mg/kg/injection, schedule: Q01DX009 (ip), vehicle: saline); 137 % of control (T/C endpoint: mean survival time, dose: 66.0 mg/kg/injection, schedule: Q01DX009 (ip), vehicle: other). The T/C was 112, 147, 150, 168 % of control (T/C endpoint: mean survival time, dose: 100.0 mg/kg/injection, schedule: Q01DX009 (ip), vehicle: citric acid, evaluated on day 30); 128 % of control (T/C endpoint: mean survival time, dose: 100.0 mg/kg/injection, schedule: Q01DX009 (ip), vehicle: citric acid, evaluated on day 50); 89, 93 [5 of 6 alive], 109, 111 % of control [4 of 6 alive] (T/C endpoint: mean survival time, dose: 100.0 mg/kg/injection, schedule: Q01DX009 (ip), vehicle: other, evaluated on day 30); 151 % of control (T/C endpoint: mean survival time, dose: 100.0 mg/kg/injection, schedule: Q01DX009 (ip), vehicle: other, evaluated on day 37); 94 % of control (T/C endpoint: mean survival time, dose: 100.0 mg/kg/injection, schedule: Q01DX009 (ip), vehicle: other, evaluated on day 45); 88 % of control under setting [1]. For the same molecule, the survivor count is 4 of 6 (T/C endpoint: mean survival time, dose: 100.0 mg/kg/injection, schedule: Q01DX009 (ip), vehicle: other); 2 of 6, 4 of 6, 5 of 6, 6 of 6 under setting [1]; 0 of 6, 1 of 6, 2 of 6, 3 of 6 (2×) (T/C endpoint: mean survival time, dose: 200.0 mg/kg/injection, schedule: Q01DX009 (ip), vehicle: other); 7 of 10 (T/C endpoint: mean survival time, dose: 400.0 mg/kg/injection, schedule: Q01DX001 (ip), vehicle: other); 3 of 6 (T/C endpoint: mean survival time, dose: 400.0 mg/kg/injection, schedule: Q04DX003 (ip), vehicle: other); 3 of 10 (T/C endpoint: mean survival time, dose: 512.0 mg/kg/injection, schedule: Q03HX008 (ip), vehicle: other). Besides, for the setting “T/C endpoint: mean survival time, dose: 512.0 mg/kg/injection, schedule: Q03HX016 (ip), vehicle: other”, the survivor count is listed as 2 of 10.
`N#CC1CCCC1=N` (stereo not given): the survivor count runs as follows: (T/C endpoint: mean survival time, dose: 50.0 mg/kg/injection, schedule: Q01DX009 (ip), vehicle: saline with Tween-80) 6 of 6; (T/C endpoint: mean survival time, dose: 100.0 mg/kg/injection, schedule: Q04DX003 (ip), vehicle: saline with Tween-80) 3 of 6; under setting [2], 0 of 6; (T/C endpoint: mean survival time, dose: 400.0 mg/kg/injection, schedule: Q04DX003 (ip), vehicle: saline with Tween-80) 0 of 6.
With `CCCCNC(=O)C1CC2c3cccc4[nH]cc(c34)CC2N(C)C1` (stereo not given), the survivor count under setting [2] is reported as 3 of 6.
Regarding `O=c1scc(-c2ccc(C(F)(F)F)cc2)s1`, the survivor count (T/C endpoint: mean survival time, dose: 50.0 mg/kg/injection, schedule: Q01DX009 (ip), vehicle: Klucel (hydroxypropylcellulose) (HPC)) is given as 6 of 6.
Regarding `Cc1ccc(Cl)cc1NC(=O)CCl`, the survivor count was 0 of 6 under setting [3] and 0 of 6 under setting [4].
As for `CCOC(=O)C(C(=O)OCC)[N+](=O)[O-]`, the survivor count (T/C endpoint: mean survival time, dose: 400.0 mg/kg/injection, schedule: Q01DX001 (ip), vehicle: saline) is recorded as 1 of 6.
Regarding `Cn1c(-c2ccccc2N=NN2CCCCC2)nc(=N)c2ccccc21`, the survivor count is, setting by setting: (T/C endpoint: mean survival time, dose: 25.0 mg/kg/injection, schedule: Q01DX005 (ip), vehicle: water) 1 of 3; (T/C endpoint: mean survival time, dose: 50.0 mg/kg/injection, schedule: Q01DX005 (ip), vehicle: water) 1 of 3; (T/C endpoint: mean survival time, dose: 100.0 mg/kg/injection, schedule: Q01DX005 (ip), vehicle: water) 0 of 3.
In the case of `CCCCCC(O)C(C)C` (stereo not given), where the note is “T/C endpoint: mean survival time, dose: 300.0 mg/kg/injection, schedule: Q01DX001 (ip), vehicle: saline”, the survivor count was 1 of 6.
For `CCC1(O)C(=O)OCc2c1cc1n(c2=O)Cc2cc3cc(Cl)ccc3nc2-1` (stereo not given), the survivor count runs as follows: (T/C endpoint: median survival time, dose: 40.0 mg/kg/injection, schedule: Q04DX002 (ip), vehicle: saline with Tween-80) 6 of 6; (T/C endpoint: median survival time, dose: 80.0 mg/kg/injection, schedule: Q04DX002 (ip), vehicle: saline with Tween-80) 6 of 6.
On to `C[N+](C)(C)c1ncnc2nc[nH]c12`, for which, where the note is “T/C endpoint: mean survival time, dose: 200.0 mg/kg/injection, schedule: Q01DX009 (ip), vehicle: saline”, the T/C is 129 and 140 % of control. Also, the survivor count (T/C endpoint: mean survival time, dose: 400.0 mg/kg/injection, schedule: Q01DX009 (ip), vehicle: saline) is 0 of 6.
As to `Oc1ccccc1/C=N/c1nc(-c2ccccc2)cs1.Oc1ccccc1/C=N/c1nc(-c2ccccc2)cs1.[Zn]`, the survivor count runs as follows: (T/C endpoint: mean survival time, dose: 200.0 mg/kg/injection, schedule: Q01DX001 (ip), vehicle: saline with Tween-80) 3 of 3; (T/C endpoint: mean survival time, dose: 400.0 mg/kg/injection, schedule: Q01DX001 (ip), vehicle: saline with Tween-80) 3 of 3.
Turning to `CC1=C(N=[N+]=[N-])C(=O)c2ccccc2C1=O`, under setting [5], the survivor count is reported as 0 of 3.
`CCCCN(CCCC)CC(O)c1ccccc1` (stereo not given): the survivor count runs as follows: (T/C endpoint: mean survival time, dose: 200.0 mg/kg/injection, schedule: Q04DX002 (ip), vehicle: saline with Tween-80) 0 of 3; under setting [5], 0 of 3.
With `C=C(Cl)CN(CC)CCO`, the survivor count runs as follows: under setting [3], 5 of 6; under setting [4], 0 of 6.
Consider `c1cc(-c2cc3ccc(C4=NCCN4)cc3[nH]2)ccc1C1=NCCN1`, for which the T/C by setting is: (T/C endpoint: mean survival time, dose: 6.25 mg/kg/injection, schedule: Q01DX009 (ip), vehicle: suspension in saline) 125 and 140 % of control; (T/C endpoint: mean survival time, dose: 12.5 mg/kg/injection, schedule: Q01DX009 (ip), vehicle: suspension in saline) 134 and 139 % of control. Further, the survivor count runs as follows: (T/C endpoint: mean survival time, dose: 50.0 mg/kg/injection, schedule: Q01DX009 (ip), vehicle: suspension in saline) 0 of 6, 4 of 6, 5 of 6; (T/C endpoint: mean survival time, dose: 100.0 mg/kg/injection, schedule: Q01DX009 (ip), vehicle: saline) 0 of 6; (T/C endpoint: mean survival time, dose: 100.0 mg/kg/injection, schedule: Q01DX009 (ip), vehicle: suspension in saline) 0 of 6.
